PubChem BioAssay AID493246 | Drosophila RNAi Screening Center | 2011
Test: 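Genes fly cells need to grow and stay alive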 (primary screen). Cell system: Drosophila Kc and S2R+ cells. Reagent: long dsRNA against Drosophila genes. Measured: 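Raw, unnormalised count of remaining cells in each well; per-plate z-scores of cell number underlie the calls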. Reading the numbers: Kc cell number and S2R+ cell number: higher = more cells remaining. Call rule: 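Active when the per-plate z-score of cell number is 3 or more in the direction of fewer cells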.
The screen tested about 21,000 reagents; below is an unselected part of those with a known target gene and a result. Of all reagents, 429 (2%) were called active. 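Values are raw and not normalised between plates; calls rest on per-plate z-scores that were not deposited.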 A number with no mark means an inactive call. A plus sign joins genes that one reagent is predicted to hit. No sequences are given here. Not stated in the record: the amount of reagent, the time to read-out.

gene	dsRNA	Kc cell number, rep 1	Kc cell number, rep 2	S2R+ cell number, rep 1	S2R+ cell number, rep 2
Cals (Calsyntenin)	DRSC17196	5.50e5		8.68e5	
mamo (maternal gene required for meiosis)	DRSC19370	1.75e6	1.74e6	1.01e6	1.15e6
scra (scraps)	DRSC07679	1.19e6	1.38e6	9.76e5	1.03e6
CG17283	DRSC15219	1.32e6	1.45e6	1.21e6	1.37e6
CG13458	DRSC10005	1.44e6	1.42e6	1.23e6	1.26e6
atlas	DRSC04183	1.72e6	1.69e6	1.42e6	1.34e6
eIF3b (eukaryotic translation initiation factor 3 subunit b)	DRSC06900	1.32e6	1.37e6	7.75e5	8.77e5
Vap33 (VAMP-associated protein 33kDa)	DRSC18384	6.23e5		8.35e5	
Polr1A (RNA polymerase I subunit A)	DRSC07535	1.48e6	1.53e6	1.19e6	1.25e6
fl(2)d (female lethal d)	DRSC07620	1.60e6	1.66e6	1.13e6	1.28e6
MED18 (Mediator complex subunit 18)	DRSC18549	1.64e6	1.64e6	1.04e6	1.20e6
CG34203	DRSC03855	5.32e5		8.58e5	
PAPLA1 (Phosphatidic Acid Phospholipase A1)	DRSC03095	1.34e6	1.37e6	5.66e5	9.23e5
PAPLA1 (Phosphatidic Acid Phospholipase A1)	DRSC03096	1.49e6	1.57e6	1.11e6	1.22e6
Gpo3 (Glycerophosphate oxidase 3)	DRSC01978	1.63e6	1.88e6	1.19e6	1.30e6
GstD9 (Glutathione S transferase D9)	DRSC14185	1.49e6	1.44e6	1.23e6	1.29e6
Oatp26F (Organic anion transporting polypeptide 26F)	DRSC02149	1.46e6	1.38e6	1.15e6	1.30e6
Oatp26F (Organic anion transporting polypeptide 26F)	DRSC02272	1.53e6	1.50e6	1.19e6	1.31e6
Oatp26F (Organic anion transporting polypeptide 26F)	DRSC02695	1.50e6	1.41e6	1.15e6	1.30e6
Lkb1 (Lkb1 kinase)	DRSC16481	1.54e6	1.57e6	1.22e6	1.28e6

The list goes on (4 carried over from the part before).
gene	dsRNA	Kc cell number, rep 1	Kc cell number, rep 2	S2R+ cell number, rep 1	S2R+ cell number, rep 2
Oatp26F (Organic anion transporting polypeptide 26F)	DRSC02149	1.46e6	1.38e6	1.15e6	1.30e6
Oatp26F (Organic anion transporting polypeptide 26F)	DRSC02272	1.53e6	1.50e6	1.19e6	1.31e6
Oatp26F (Organic anion transporting polypeptide 26F)	DRSC02695	1.50e6	1.41e6	1.15e6	1.30e6
Lkb1 (Lkb1 kinase)	DRSC16481	1.54e6	1.57e6	1.22e6	1.28e6
Uhg2 + snoRNA:Me18S-G1620 + snoRNA:U14:30Ea	DRSC01100	1.42e6	1.46e6	9.49e5	1.08e6
Ets96B	DRSC16127	1.57e6	1.50e6	1.04e6	1.12e6
CheB98a (Chemosensory protein A 98a)	DRSC14882	1.57e6	1.62e6	1.01e6	1.21e6
Pvf3 (PDGF- and VEGF-related factor 3)	DRSC02284	1.61e6	1.60e6	1.20e6	1.30e6
Pvf3 (PDGF- and VEGF-related factor 3)	DRSC02285	1.60e6	1.44e6	1.18e6	1.34e6
Pvf3 (PDGF- and VEGF-related factor 3)	DRSC02286	1.64e6	1.57e6	1.11e6	1.27e6
Pvf3 (PDGF- and VEGF-related factor 3)	DRSC02751	1.57e6	1.48e6	1.08e6	1.24e6
Polr1C (RNA polymerase I and III subunit C)	DRSC02719	1.31e6	1.36e6	6.56e5	6.75e5
CG11085	DRSC19374	1.60e6	1.54e6	1.04e6	1.12e6
CG15651	DRSC04242	1.51e6	1.60e6	1.38e6	4.85e5
B-H1 (BarH1)	DRSC19334	1.28e6	1.22e6	8.06e5	9.08e5
CG30203	DRSC06690	1.49e6	1.49e6	1.19e6	1.35e6
snoRNA:Me28S-C3420b + RpS11	DRSC07396	1.62e6	1.66e6	1.20e6	1.35e6
nmdyn-D7	DRSC17016	1.47e6	1.42e6	1.29e6	1.35e6
CG4553	DRSC15595	1.65e6	1.91e6	1.07e6	1.12e6
kon (kon-tiki)	DRSC02033	1.26e6	1.34e6	1.24e6	1.10e6
bt (bent)	DRSC17129	4.93e5		8.42e5	
bt (bent)	DRSC17171	4.43e5		7.27e5	
CG5412	DRSC15796	1.46e6	1.56e6	1.23e6	1.26e6
CG17375	DRSC02614	1.52e6	1.36e6	1.12e6	1.21e6
